One molecule from paper PMC4038590 (PLoS ONE, 2014) can be followed below.

Sequences of proteins named here, by UniProt entry; tags and fusion partners are left off. Residues count along the entry.
UniProt P06492, residues 427-485: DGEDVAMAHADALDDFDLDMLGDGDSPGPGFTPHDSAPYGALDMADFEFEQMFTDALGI

In this assay the target is GST-VP16-TAD (Herpes simplex virus VP16 transcription activation domain, both subdomains, residues 427-485) (Herpes simplex virus type 1) (UniProt P06492). Description: pull-down; both purified.

These are yes or no findings as the source states them, for the method shown. Some results given as binding are weak or reduced against the parent protein; the word gives no strength.

B1: Arabidopsis thaliana Med25 ACtivator Interaction Domain (aMed25-ACID), Med25_(551-680) (domain or fragment, UniProt Q7XYY2 551-680, looked up)
chain: TSQSKYVKVWEGNLSGQRQGQPVLITRLEGYRSASASDSLAANWPPTMQIVRLISQDHMNNKQYVGKADFLVFRAMSQHGFLGQLQDKKLCAVIQLPSQTLLLSVSDKACRLIGMLFPGDMVVFKPQIPN
notes: source: 15N-labelled in M9 medium for NMR
On to B1, for which the binding entry is “binds”.
